From patent EP1161524B1, “CELLS COEXPRESSING AN AMYLOID PRECURSOR PROTEIN AND AN $g(a)-SECRETASE AND THEIR USES IN TEST METHODS AND DIAGNOSTICS” (Fahrenholz, Falk, priority 1999, dated 2007)
Not every detail of the peptide structures is certain; ends, links or a residue may be inferred.

Tested on: Rinder-ADAM 10
Assay: Protease test for substrate specificity: cleavage of peptide substrates by purified ADAM 10, HPLC analysis
Assay type: biochemical, Rind (Bos taurus)
Settings: 37°C, peptide 0,3 mM, 2 µg purified enzyme, pH 8,3, relative to peptide incubated without enzyme

SMILES: CC(C)C[C@H](NC(=O)[C@H](CCCCN)NC(=O)[C@H](CCC(N)=O)NC(=O)[C@H](Cc1c[nH]cn1)NC(=O)[C@H](Cc1c[nH]cn1)NC(=O)[C@@H](NC(=O)[C@@H](N)CCC(=O)O)C(C)C)C(=O)N[C@H](C(=O)N[C@@H](Cc1ccccc1)C(=O)N[C@@H](Cc1ccccc1)C(=O)N[C@@H](C)C(=O)N[C@@H](CCC(=O)O)C(=O)N[C@@H](CC(=O)O)C(=O)N[C@H](C(=O)NCC(=O)N[C@@H](CO)C(=O)N[C@@H](CC(N)=O)C(=O)N[C@@H](CCCCN)C(N)=O)C(C)C)C(C)C [Aβ(11-28)]
- % Spaltung durch Rinder-ADAM 10 nach 30 min (30 min): 28%
- % Spaltung durch Rinder-ADAM 10 nach 6 h (6 h): 69%
